Data on 2 molecules can be found in paper PMC2900177.

The target in experiment [1] is T1, FLAG-14-3-3γ (UniProt P61981).
T1 sequence: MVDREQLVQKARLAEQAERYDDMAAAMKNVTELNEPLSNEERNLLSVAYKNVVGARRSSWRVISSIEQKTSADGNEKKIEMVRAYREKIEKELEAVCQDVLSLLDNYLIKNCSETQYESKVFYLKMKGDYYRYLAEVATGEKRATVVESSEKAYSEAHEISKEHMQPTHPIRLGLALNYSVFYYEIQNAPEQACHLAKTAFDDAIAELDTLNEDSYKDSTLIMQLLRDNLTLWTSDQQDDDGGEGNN
Briefly: co-IP; 1 mg lysate of NIH3T3 cells stably expressing FLAG-14-3-3γ or FLAG-14-3-3σ, 5 µg anti-Flag antibody overnight at 4°C, protein A/G beads, washed with RIPA buffer, immunoblot; reciprocal IPs with anti-Raf-1, anti-p110 and anti-TSC2; also from cells treated with PD98059 (interaction with p110 not eliminated, with TSC2 reduced). Background: Immunoblotting shows a protein as a band on a membrane.

The target in experiment [2] is T1, FLAG-14-3-3γ. In words: co-IP; anti-FLAG IP from NIH3T3 cells stably expressing FLAG-14-3-3γ or FLAG-14-3-3σ that were treated with LY294002; immunoblot for p110 and TSC2.
For experiment [3], the target named is T2, GST-14-3-3γ (UniProt P61981).
T2 sequence: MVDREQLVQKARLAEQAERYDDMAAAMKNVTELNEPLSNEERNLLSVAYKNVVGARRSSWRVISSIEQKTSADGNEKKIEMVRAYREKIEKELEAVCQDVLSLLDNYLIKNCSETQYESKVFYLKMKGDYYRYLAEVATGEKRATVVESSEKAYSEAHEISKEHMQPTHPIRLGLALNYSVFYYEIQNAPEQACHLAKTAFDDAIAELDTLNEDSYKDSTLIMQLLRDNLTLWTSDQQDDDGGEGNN
Briefly: pull-down; GST-14-3-3 bound to glutathione-Sepharose beads, incubated with precleared NIH3T3 cell lysates 2 h at 4°C, washed three times with PBS, immunoblot for Raf-1, PI3K p110 and TSC2; only the target purified.

The target of experiment [4] is PI3K p110 catalytic subunit (mouse (endogenous in NIH3T3)). Briefly: co-IP; 1 mg lysate of NIH3T3 cells stably expressing FLAG-14-3-3γ or FLAG-14-3-3σ, 5 µg anti-Flag antibody overnight at 4°C, protein A/G beads, washed with RIPA buffer, immunoblot; reciprocal IPs with anti-Raf-1, anti-p110 and anti-TSC2; also from cells treated with PD98059 (interaction with p110 not eliminated, with TSC2 reduced).

These are yes or no findings as the source states them, for the method shown. In cells and extracts the contact can be indirect. For some of these results: Binding can be weak; no strength is given. Sequences can lack the tags named with a protein.

Take “PI3K p110 catalytic subunit (mouse (endogenous in NIH3T3)) (enzyme)”: the binding result is on record as “binds” in experiment [1], “no binding (only cells treated with LY294002)” in experiment [2] and “binds” in experiment [3].

B1: FLAG-14-3-3γ (protein, UniProt P61981 1-247)
chain: MVDREQLVQKARLAEQAERYDDMAAAMKNVTELNEPLSNEERNLLSVAYKNVVGARRSSWRVISSIEQKTSADGNEKKIEMVRAYREKIEKELEAVCQDVLSLLDNYLIKNCSETQYESKVFYLKMKGDYYRYLAEVATGEKRATVVESSEKAYSEAHEISKEHMQPTHPIRLGLALNYSVFYYEIQNAPEQACHLAKTAFDDAIAELDTLNEDSYKDSTLIMQLLRDNLTLWTSDQQDDDGGEGNN
For the molecule B1, the binding entry in experiment [4] is “binds”.
